PubChem BioAssay AID1224826, NIAID – 2016

Purpose: 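Knock-downs that raise or lower Tnf reporter signal after endotoxin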 (primary screen)
Cell system: RAW264.7 G9 macrophages from mouse bearing reporters for p65 (GFP) and the Tnf promoter (mCherry)
Reagents: siRNA pool against mouse genes, 100 nM
Time to read-out: 16 h of LPS stimulation, after 2 days of siRNA transfection
Conditions: bacterial lipopolysaccharide (Salmonella minnesota R595), 10 ng/ml
Read-out: 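Nuclear mCherry signal of the Tnf promoter reporter measured by imaging after background removal, scaled to each plate median and turned into robust z-scores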
Scale: Tnf reporter robust z-score: higher = stronger Tnf promoter reporter signal after LPS; Tnf reporter intensity: higher = stronger Tnf promoter reporter signal
Active means: 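Called active when robust z-score is at most -1.3, matching the median of the Tlr4 knock-down control, or over 3; control wells and wells with under 50 cells never active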
Calls: active = Tnf reporter clearly lowered or raised; inactive = no clear change in Tnf reporter
This is one part, drawn at random, of about 17,000 reagents tested. About 1,110 of them (6.6%) were called active. 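Active means lowered or raised reporter signal; replicate intensities are raw and not normalised per plate.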

no.	gene	Tnf reporter robust z-score	fewer than 50 cells in well	Tnf reporter intensity, replicate 1	Tnf reporter intensity, replicate 2	Outcome
1	Mep1b (meprin 1 beta)	-0.44	enough cells in well	200	195	inactive
2	Ftdc2 (ferritin domain containing 2)	-1.48	enough cells in well	98.3	43	active
3	Riox2 (ribosomal oxygenase 2)	1.27	enough cells in well	251	226	inactive
4	Stt3a	-0.86	enough cells in well	162	76.3	inactive
5	Psma2 (proteasome subunit alpha 2)	0.29	enough cells in well	281	202	inactive
6	4930556L07Rik (RIKEN cDNA 4930556L07 gene)		fewer than 50 cells per well; well left out of calls	341	148	inactive
7	Atxn3 (ataxin 3)	-0.57	enough cells in well	230	151	inactive
8	9330132A10Rik (RIKEN cDNA 9330132A10 gene)	1.16	enough cells in well	238	276	inactive
9	Timm50 (translocase of inner mitochondrial membrane 50)	0.58	enough cells in well	174	205	inactive
10	Or5w22 (olfactory receptor family 5 subfamily W member 22)	-0.16	enough cells in well	179	109	inactive
11	Ddx11 (DEAD/H box helicase 11)	-0.15	enough cells in well	172	126	inactive
12	Mmp14 (matrix metallopeptidase 14 (membrane-inserted))	0.8	enough cells in well	317	275	inactive
13	Scn1a (sodium channel, voltage-gated, type I, alpha)	-0.14	enough cells in well	105	139	inactive
14	Tmem150a (transmembrane protein 150A)	-0.43	enough cells in well	158	197	inactive
15	Bahcc1 (BAH domain and coiled-coil containing 1)	1.43	enough cells in well	6.36	246	inactive
16	Flt4 (FMS-like tyrosine kinase 4)	1.84	enough cells in well	397	188	inactive
17	Igsf8 (immunoglobulin superfamily, member 8)		fewer than 50 cells per well; well left out of calls	233	122	inactive
18	Slc33a2		fewer than 50 cells per well; well left out of calls	90.2	85.4	inactive
19	Mapk8 (mitogen-activated protein kinase 8)	-0.61	enough cells in well	167	117	inactive
20	Poc5 (POC5 centriolar protein)	0.45	enough cells in well	245	97.2	inactive
21	Ift43 (intraflagellar transport 43)		fewer than 50 cells per well; well left out of calls	138	42.8	inactive
22	Deptor (DEP domain containing MTOR-interacting protein)	1.25	enough cells in well	300	203	inactive
23	Cadm1 (cell adhesion molecule 1)	-1.58	enough cells in well	94	58.7	active
24	Ranbp1 (RAN binding protein 1)	0.65	enough cells in well	398	236	inactive
25	Ppp1r14d (protein phosphatase 1, regulatory inhibitor subunit 14D)	1.23	enough cells in well	334	284	inactive
26	Ctf1 (cardiotrophin 1)	-1.4	enough cells in well	99.8	131	active
27	Tapbpl (TAP binding protein-like)		fewer than 50 cells per well; well left out of calls	66.9	92.6	inactive
28	Lag3 (lymphocyte-activation gene 3)	1.26	enough cells in well	321	229	inactive
29	Fut1 (fucosyltransferase 1)	0.88	enough cells in well	348	292	inactive
30	Gpr160 (G protein-coupled receptor 160)	-0.92	enough cells in well	128	241	inactive
31	Or8k24 (olfactory receptor family 8 subfamily K member 24)	0.37	enough cells in well	181	193	inactive
32	Zdhhc2 (zinc finger, DHHC domain containing 2)	0.78	enough cells in well	139	177	inactive
33	Or13ae2 (olfactory receptor family 13 subfamily AE member 2)	-0.77	enough cells in well	160	71	inactive
34	Rbl1 (RB transcriptional corepressor like 1)	0.29	enough cells in well	331	230	inactive
35	Tuba1a (tubulin, alpha 1A)	-0.82	enough cells in well	171	159	inactive
36	Siah1a (siah E3 ubiquitin protein ligase 1A)	-0.1	enough cells in well	260	217	inactive
37	Nek3 (NIMA (never in mitosis gene a)-related expressed kinase 3)	0.18	enough cells in well	161	215	inactive
38	Skint9 (selection and upkeep of intraepithelial T cells 9)	-1.19	enough cells in well	97.7	97.1	inactive
39	C6 (complement component 6)	-0.19	enough cells in well	151	131	inactive
40	Copb1 (coatomer protein complex, subunit beta 1)		fewer than 50 cells per well; well left out of calls	70.3	0	inactive
41	Mib2 (mindbomb E3 ubiquitin protein ligase 2)		fewer than 50 cells per well; well left out of calls	90.5	64.8	inactive
42	Acss3 (acyl-CoA synthetase short-chain family member 3)	-0.03	enough cells in well	136	179	inactive
43	Clxn (calaxin)	0.68	enough cells in well	202	185	inactive
44	Scml2 (Scm polycomb group protein like 2)	1.59	enough cells in well	198	195	inactive
45	Hras (Hras proto-oncogene, GTPase)	-1.89	enough cells in well	115	42	active
46	1700020L24Rik (RIKEN cDNA 1700020L24 gene)	-0.51	enough cells in well	178	71.6	inactive
47	Oaz3 (ornithine decarboxylase antizyme 3)	0.09	enough cells in well	250	186	inactive
48	Pan2 (PAN2 poly(A) specific ribonuclease subunit)	-0.1	enough cells in well	221	224	inactive
49	Asnsd1 (asparagine synthetase domain containing 1)		fewer than 50 cells per well; well left out of calls	166	58.2	inactive
50	Crnkl1 (crooked neck pre-mRNA splicing factor 1)		fewer than 50 cells per well; well left out of calls	121	67.6	inactive
51	Frg1 (FSHD region gene 1)	-0.66	enough cells in well	209	94.6	inactive
52	Cdkn2a (cyclin dependent kinase inhibitor 2A)	2.1	enough cells in well	283	298	inactive
53	Cks2 (CDC28 protein kinase regulatory subunit 2)	0.83	enough cells in well	242	209	inactive
54	Cds2 (CDP-diacylglycerol synthase 2)	0.05	enough cells in well	128	234	inactive
55	Fyn (Fyn proto-oncogene, Src family tyrosine kinase)	0.93	enough cells in well	278	190	inactive
56	B230317F23Rik (RIKEN cDNA B230317F23 gene)	-0.85	enough cells in well	118	121	inactive
57	Ap1g2 (adaptor protein complex AP-1, gamma 2 subunit)	-1.69	enough cells in well	89.5	80.3	active
58	Rad23a (RAD23 homolog A, nucleotide excision repair protein)	-0.86	enough cells in well	214	148	inactive
